From patent publication US20070141158A1, “Amphiphilic heparin derivative formed by coupling a heparin with a bile acid” (ETHYPHARM, priority 2003, published 2007) come the findings set out here.

SMILES strings stand for the structures.

For the data set, the system named is rat everted intestinal sac. Particulars: vectorized by HEP30CHO (magnesium salt form) versus nifedipine kept in solution with DMSO; 30, 60 and 90 minutes, 37° C. (FIG. 7).

As for `COC(=O)C1=C(C)NC(C)=C(C(=O)OC)C1c1ccccc1[N+](=O)[O-]` [Nifedipine], the “rate of absorption of nifedipine by the intestinal mucosa” value is on record as “markedly greater”.
